Results are given in words; binding and its absence hold for the method and conditions named. Some results given as binding are weak or reduced against the parent protein; the word gives no strength.
Target: T1, S100 calcium-binding protein 8 (S100A8) protein (UniProt P27005)
T1 sequence: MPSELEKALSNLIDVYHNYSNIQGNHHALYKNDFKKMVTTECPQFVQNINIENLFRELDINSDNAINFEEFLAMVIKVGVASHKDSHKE
Assay: SPR; S100A8 immobilised on a COOH chip; S100A9 at 800, 400, 200, 100 and 50 μM as printed in the legend; also run with GA (glycyrrhizic acid) bound first; both purified

B1: S100A9 (protein, UniProt P31725 1-113)
chain: MANKAPSQMERSITTIIDTFHQYSRKEGHPDTLSKKEFRQMVEAQLATFMKKEKRNEALINDIMEDLDTNQDNQLSFEECMMLMAKLIFACHEKLHENNPRGHGHSHGKGCGK
**Q.** How did the binding turn out when B1 was run?
**A.** The binding was “binds”.
